{
  "source": "the supplement of paper PMC6690932",
  "note": "Where a name gives a salt, the structure may show the parent alone. ± gives the standard deviation of the averaged measurements. The list shows a part of the results. Most values come without repeats; read them as rough.",
  "data": [
    {"tested_on": "HeLa", "test": "lysosomal-METRIQ red/green fluorescence ratio relative to DMSO (ratio to DMSO); higher = higher lysosomal activity / lysosomal biogenesis", "conditions": "10 µM; 12 h", "values": [
      {"smiles": "COc1ccc(C2=N[C@@H](c3ccc(Cl)cc3)[C@@H](c3ccc(Cl)cc3)N2C(=O)N2CCNC(=O)C2)c(OC(C)C)c1", "note": "[Nutlin-3]", "lysosomal-METRIQ red/green fluorescence ratio": 1.17},
      {"smiles": "O=Nc1c(-c2c(O)[nH]c3ccccc23)[nH]c2ccccc12", "note": "[indirubin-3'-monoxime]", "lysosomal-METRIQ red/green fluorescence ratio": 0.188},
      {"smiles": "CC(=O)O[C@H]1C(=O)[C@@]2(C)[C@H]([C@H](OC(=O)c3ccccc3)[C@]3(O)C[C@H](OC(=O)[C@H](O)[C@@H](NC(=O)c4ccccc4)c4ccccc4)C(C)=C1C3(C)C)[C@]1(OC(C)=O)CO[C@@H]1C[C@@H]2O", "note": "[Paclitaxel]", "lysosomal-METRIQ red/green fluorescence ratio": 1.19},
      {"smiles": "CCOC(=O)C1=C(C)NC(=S)NC1c1cccc(O)c1", "note": "(stereo unspecified) [Monastrol]", "lysosomal-METRIQ red/green fluorescence ratio": 1},
      {"smiles": "CCn1cc(C(=O)O)c(=O)c2ccc(C)nc21", "note": "[Nalidixic acid]", "lysosomal-METRIQ red/green fluorescence ratio": 1},
      {"smiles": "C[C@@H]1C[C@H]2O[C@@H]2/C=C\\C=C\\C(=O)Cc2c(Cl)c(O)cc(O)c2C(=O)O1", "note": "[radicicol]", "lysosomal-METRIQ red/green fluorescence ratio": 0.812},
      {"smiles": "Cc1ccc(-c2cn3c4c(sc3n2)CCCC4)cc1", "note": "[Pifithrin-a (cyclic)]", "lysosomal-METRIQ red/green fluorescence ratio": 1.08},
      {"smiles": "Cc1cccc(-c2nn3c(c2-c2ccnc4ccc(C(N)=O)cc24)CCC3)n1", "lysosomal-METRIQ red/green fluorescence ratio": 0.955},
      {"smiles": "Cc1ccc(NC(=O)c2ccc(CN3CCN(C)CC3)cc2)cc1Nc1nccc(-c2cccnc2)n1", "note": "[imatinib mesylate]", "lysosomal-METRIQ red/green fluorescence ratio": 0.727},
      {"smiles": "COc1cc(O)c(CC=C(C)C)c(O)c1C(=O)/C=C/c1ccc(O)cc1", "note": "[Xanthohumol]", "lysosomal-METRIQ red/green fluorescence ratio": 0.87},
      {"smiles": "COC(=O)[C@H](CC(C)C)NC(=O)c1ccc(NC[C@@H](N)CS)cc1-c1ccccc1", "lysosomal-METRIQ red/green fluorescence ratio": 1.1},
      {"smiles": "C#Cc1cccc(Nc2ncnc3cc(OCCOC)c(OCCOC)cc23)c1", "note": "[erlotinib]", "lysosomal-METRIQ red/green fluorescence ratio": 0.818},
      {"smiles": "CCCOc1ccccc1-c1nc2[nH]nnc2c(=O)[nH]1", "note": "[Zaprinast]", "lysosomal-METRIQ red/green fluorescence ratio": 1.07},
      {"smiles": "C[n+]1cc2c3c(ccc2c2ccc4cc5c(cc4c21)OCO5)OCO3", "note": "[Sanguinarine]", "lysosomal-METRIQ red/green fluorescence ratio": 0.44},
      {"smiles": "O=C1NC(=O)c2c1c1c3ccccc3[nH]c1n1cncc21", "note": "[isogranulatimide]", "lysosomal-METRIQ red/green fluorescence ratio": 0.864},
      {"smiles": "CN(Cc1cnc2nc(N)nc(N)c2n1)c1ccc(C(=O)N[C@@H](CCC(=O)O)C(=O)O)cc1", "note": "[Methotrexate]", "lysosomal-METRIQ red/green fluorescence ratio": 1.29},
      {"smiles": "NNCCc1ccccc1", "note": "[Phenelzine]", "lysosomal-METRIQ red/green fluorescence ratio": 1.04},
      {"smiles": "Nc1[nH]nc2nnc(-c3c(-c4ccccc4)nn4ccccc34)cc12", "note": "[ERK inhibitor II]", "lysosomal-METRIQ red/green fluorescence ratio": 0.938},
      {"smiles": "OC[C@H]1NC[C@H](O)[C@@H](O)[C@@H]1O", "note": "[Deoxynojirimycin]", "lysosomal-METRIQ red/green fluorescence ratio": 1},
      {"smiles": "CC1(C)CCC(C)(C)c2cc(NC(=O)c3ccc(C(=O)O)cc3)ccc21", "note": "[tamibarotene]", "lysosomal-METRIQ red/green fluorescence ratio": 0.773},
      {"smiles": "O=C1Cc2c([nH]c3ccc(Br)cc23)-c2ccccc2N1", "note": "[Kenpaullone]", "lysosomal-METRIQ red/green fluorescence ratio": "1.7 ± 0.42"},
      {"smiles": "COc1cccc2c1C(=O)c1c(O)c3c(c(O)c1C2=O)C[C@@](O)(C(C)=O)C[C@@H]3O[C@H]1C[C@H](N)[C@H](O)[C@H](C)O1", "note": "[Daunorubicin, HCl]", "lysosomal-METRIQ red/green fluorescence ratio": 0.613},
      {"smiles": "c1ccc2c(-c3cnn4cc(-c5ccc(N6CCNCC6)cc5)cnc34)ccnc2c1", "lysosomal-METRIQ red/green fluorescence ratio": 0.818},
      {"smiles": "CSc1ccc(/C=C2/C(C)=C(CC(=O)O)c3cc(F)ccc32)cc1", "note": "[Sulindac sulfide]", "lysosomal-METRIQ red/green fluorescence ratio": 1.05},
      {"smiles": "CC(C)C[C@H](NC(=O)[C@H](Cc1ccccc1)NC(=O)c1cnccn1)B(O)O", "note": "[bortezomib]", "lysosomal-METRIQ red/green fluorescence ratio": 0.5},
      {"smiles": "COc1ccc(CCN(C)CCCC(C#N)(c2ccc(OC)c(OC)c2)C(C)C)cc1OC", "note": "(stereo unspecified) [Verapamil]", "lysosomal-METRIQ red/green fluorescence ratio": 0.92},
      {"smiles": "O=c1c(-c2ccc(O)cc2)coc2cc(O)cc(O)c12", "note": "[Genistein]", "lysosomal-METRIQ red/green fluorescence ratio": 1.1},
      {"smiles": "O=S(=O)(c1cccc2cnccc12)N1CCCNCC1", "lysosomal-METRIQ red/green fluorescence ratio": 1.13},
      {"smiles": "CCCCOc1cc(CC2CNC(=O)N2)ccc1OC", "note": "(stereo unspecified)", "lysosomal-METRIQ red/green fluorescence ratio": 1.13},
      {"smiles": "O=Cc1ccc(N2CCOCC2)cc1O", "lysosomal-METRIQ red/green fluorescence ratio": 1},
      {"smiles": "CNCCCN1c2ccccc2CCc2ccccc21", "note": "[desipramine hydrochloride]", "lysosomal-METRIQ red/green fluorescence ratio": 0.727},
      {"smiles": "CC(C)C(C(=O)O)N1C(=O)C(=Cc2ccc(Br)cc2)SC1=S", "note": "(stereo unspecified)", "lysosomal-METRIQ red/green fluorescence ratio": 1},
      {"smiles": "N#C/C(=C\\c1ccc2oc(=O)[nH]c2c1)C(=O)c1ccc(O)c(O)c1", "lysosomal-METRIQ red/green fluorescence ratio": 0.938},
      {"smiles": "CC[C@@]1(O)C[C@H](O[C@H]2C[C@H](N(C)C)[C@H](O[C@H]3C[C@H](O)[C@H](O[C@H]4CCC(=O)[C@H](C)O4)[C@H](C)O3)[C@H](C)O2)c2c(cc3c(c2O)C(=O)c2c(O)cccc2C3=O)[C@H]1C(=O)OC", "note": "[Aclarubicin]", "lysosomal-METRIQ red/green fluorescence ratio": 1.26},
      {"smiles": "C=CC[C@@H]1/C=C(\\C)C[C@H](C)C[C@H](OC)[C@H]2O[C@@](O)(C(=O)C(=O)N3CCCC[C@H]3C(=O)O[C@H](/C(C)=C/[C@@H]3CC[C@@H](O)[C@H](OC)C3)[C@H](C)[C@@H](O)CC1=O)[C@H](C)C[C@@H]2OC", "lysosomal-METRIQ red/green fluorescence ratio": 1.07},
      {"smiles": "CNC(=O)c1ccccc1Sc1ccc2c(/C=C/c3ccccn3)n[nH]c2c1", "note": "[Axitinib]", "lysosomal-METRIQ red/green fluorescence ratio": 0.955}
    ]}
  ]
}
